Data published in article PMC10548113, “Modeling a variant of unknown significance in the Drosophila ortholog of the human cardiogenic gene NKX2.5”.

B1: MBP-Tin homeodomain, wild type (domain or fragment, UniProt P22711 301-360)
chain: KRKPRVLFSQAQVLELECRFRLKKYLTGAEREIIAQKLNLSATQVKIWFQNRRYKSKRGD
B2: MBP-Tin^R321N homeodomain (domain or fragment, UniProt P22711 301-360)
chain: B1 chain with R21N

Experiments:
[1] = target: GST-Doc1 (Drosophila); experiment: pull-down; saturation binding: GST-Doc1 immobilised on glutathione agarose, incubated with 0-500 nM MBP-Tin HD WT or R321N; wash buffer 20 mM Tris-HCl pH 8, 150 mM NaCl, 1 mM DTT, 0.2% Triton X-100; anti-MBP western blot quantified in ImageJ, one-site specific binding model; both purified
[2] = target: GST-Doc1 (Drosophila); experiment: pull-down; GST or GST-Doc1 immobilised on glutathione agarose (from clarified lysate, extensively washed), incubated with 10 µM MBP, MBP-Tin HD WT or R321N; wash buffer 20 mM Tris-HCl pH 8, 150 mM NaCl, 1 mM DTT, 0.2% Triton X-100; bound MBP proteins detected by anti-MBP western blot; both purified

Binder | binding [1] | binding [2]
B1 | binds | binds
B2 | binds | binds

Changes are numbered by the printed parent chain. Names may count otherwise. Results are given in words; binding and its absence hold for the method and conditions named. Binding can be weak; no strength is given. Where a sequence is shown, tags or fusion partners need not be part of it. For some of these results: Binding seen in cells or lysates may run through a third protein.
